The source of these data is publication PMC4676636.

Sequences of proteins named here, by UniProt entry; tags and fusion partners are left off. Residues count along the entry.
UniProt P08581, 25-1390: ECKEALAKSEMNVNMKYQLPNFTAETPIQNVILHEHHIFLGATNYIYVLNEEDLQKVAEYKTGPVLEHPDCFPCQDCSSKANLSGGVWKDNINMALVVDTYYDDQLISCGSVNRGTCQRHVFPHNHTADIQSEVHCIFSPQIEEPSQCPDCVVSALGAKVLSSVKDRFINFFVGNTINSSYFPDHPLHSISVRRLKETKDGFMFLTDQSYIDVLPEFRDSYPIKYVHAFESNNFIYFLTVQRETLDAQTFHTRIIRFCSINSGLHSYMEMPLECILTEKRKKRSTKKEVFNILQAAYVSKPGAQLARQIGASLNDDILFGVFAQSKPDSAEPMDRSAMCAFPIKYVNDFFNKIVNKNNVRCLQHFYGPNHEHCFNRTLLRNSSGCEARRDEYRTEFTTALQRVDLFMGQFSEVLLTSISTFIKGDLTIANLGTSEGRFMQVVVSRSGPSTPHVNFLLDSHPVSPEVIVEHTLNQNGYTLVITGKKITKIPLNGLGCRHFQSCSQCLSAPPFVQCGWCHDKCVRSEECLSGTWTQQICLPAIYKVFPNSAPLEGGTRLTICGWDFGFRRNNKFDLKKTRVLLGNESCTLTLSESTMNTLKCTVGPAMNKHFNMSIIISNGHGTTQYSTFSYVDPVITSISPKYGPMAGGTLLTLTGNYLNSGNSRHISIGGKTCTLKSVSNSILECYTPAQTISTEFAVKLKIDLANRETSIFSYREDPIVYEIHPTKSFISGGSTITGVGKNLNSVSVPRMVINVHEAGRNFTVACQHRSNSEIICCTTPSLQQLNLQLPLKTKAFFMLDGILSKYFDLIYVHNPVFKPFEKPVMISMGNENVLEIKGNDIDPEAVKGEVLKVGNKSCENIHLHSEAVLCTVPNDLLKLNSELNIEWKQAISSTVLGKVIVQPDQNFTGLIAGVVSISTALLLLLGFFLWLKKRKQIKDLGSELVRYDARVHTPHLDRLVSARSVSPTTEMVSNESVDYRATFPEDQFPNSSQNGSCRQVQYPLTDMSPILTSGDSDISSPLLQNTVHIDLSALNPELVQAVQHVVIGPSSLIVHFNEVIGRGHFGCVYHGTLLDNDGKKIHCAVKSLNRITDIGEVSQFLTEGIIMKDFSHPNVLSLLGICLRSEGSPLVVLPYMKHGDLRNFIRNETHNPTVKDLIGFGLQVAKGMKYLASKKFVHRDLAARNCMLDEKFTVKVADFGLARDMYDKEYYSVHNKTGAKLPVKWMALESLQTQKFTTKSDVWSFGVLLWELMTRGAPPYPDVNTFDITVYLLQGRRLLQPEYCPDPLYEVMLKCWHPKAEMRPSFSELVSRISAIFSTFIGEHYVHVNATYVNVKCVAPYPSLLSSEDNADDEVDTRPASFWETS
UniProt Q04912, 25-1400: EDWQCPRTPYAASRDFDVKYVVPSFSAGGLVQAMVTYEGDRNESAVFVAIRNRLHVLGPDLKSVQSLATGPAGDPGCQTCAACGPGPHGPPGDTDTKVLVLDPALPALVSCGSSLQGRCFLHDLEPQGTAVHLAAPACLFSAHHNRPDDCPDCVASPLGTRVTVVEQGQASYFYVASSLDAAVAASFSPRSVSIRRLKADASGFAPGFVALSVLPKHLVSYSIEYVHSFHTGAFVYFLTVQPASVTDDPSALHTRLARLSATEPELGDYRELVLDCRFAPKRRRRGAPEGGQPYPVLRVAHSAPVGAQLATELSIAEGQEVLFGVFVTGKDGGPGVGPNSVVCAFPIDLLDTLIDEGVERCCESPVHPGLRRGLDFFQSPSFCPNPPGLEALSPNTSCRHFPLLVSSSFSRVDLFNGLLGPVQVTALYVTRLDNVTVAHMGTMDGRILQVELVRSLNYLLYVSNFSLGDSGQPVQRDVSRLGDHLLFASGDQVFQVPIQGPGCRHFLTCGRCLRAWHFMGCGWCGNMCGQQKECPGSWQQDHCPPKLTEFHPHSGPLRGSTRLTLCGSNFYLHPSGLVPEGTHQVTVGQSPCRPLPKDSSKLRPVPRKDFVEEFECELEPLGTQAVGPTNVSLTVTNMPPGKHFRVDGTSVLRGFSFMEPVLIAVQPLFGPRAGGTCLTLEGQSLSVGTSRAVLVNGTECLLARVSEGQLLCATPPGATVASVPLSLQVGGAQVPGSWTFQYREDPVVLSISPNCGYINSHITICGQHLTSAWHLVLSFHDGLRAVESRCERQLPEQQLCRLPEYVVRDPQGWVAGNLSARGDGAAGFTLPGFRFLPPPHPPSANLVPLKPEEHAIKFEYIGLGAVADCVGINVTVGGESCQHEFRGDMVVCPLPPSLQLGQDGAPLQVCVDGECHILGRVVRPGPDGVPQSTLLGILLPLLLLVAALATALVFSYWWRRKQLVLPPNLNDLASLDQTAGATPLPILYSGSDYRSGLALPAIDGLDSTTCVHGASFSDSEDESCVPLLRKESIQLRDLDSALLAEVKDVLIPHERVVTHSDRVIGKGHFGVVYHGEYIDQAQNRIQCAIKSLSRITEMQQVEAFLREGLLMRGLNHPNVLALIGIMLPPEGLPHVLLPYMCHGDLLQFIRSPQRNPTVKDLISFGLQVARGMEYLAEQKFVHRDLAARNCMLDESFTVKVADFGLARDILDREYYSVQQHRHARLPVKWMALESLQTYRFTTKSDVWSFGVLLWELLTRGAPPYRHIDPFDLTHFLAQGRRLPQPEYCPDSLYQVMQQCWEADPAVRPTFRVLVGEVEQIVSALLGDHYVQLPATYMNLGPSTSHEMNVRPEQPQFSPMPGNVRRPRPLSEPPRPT

Construct, isoform or probe ends are uncertain for at least one entry. Where cells or extracts were used, other partners may take part. A negative result means that nothing was seen under these conditions.

Data set [1] concerns the target c-Met on EBC-1 cells (Homo sapiens) (UniProt P08581). Description: flow cytometry. Particulars: flow cytometry: PBS/1% BSA, 4 C, 30 min, protein on the cell surface. On the technique in general: Flow cytometry measures light scatter and fluorescence of single cells or particles in a stream.
Data set [2] has as its target RON on MDA-MB-453 cells (Homo sapiens) (UniProt Q04912). Nature of the data set: flow cytometry. The note with it: MDA-MB-453 cells, flow cytometry: PBS/1% BSA, 4 C, 30 min, protein on the cell surface.
The mark [3] stands for this setting: 2'-O-methyl purines and 2'-fluoro pyrimidines (mRfY), label: none (competitor), 3'-biotin (CLN-F-B, cells), synthetic backbone.
Setting [4] is: label: 3'-biotin (CLN118-B), single-stranded DNA.

Consider “GGAGGGAAAAGTTATCAGGCCGCTAGTTACCAGGTGTAGCTGACCAAGCGGATGTGTGTTGATTAGTTTTGGAGTACTCGCTCC [CLN-F]”, for which the binding result in data set [1] (setting [3]) and in data set [2] (setting [3]) was “no binding” in each case.

“GGAGGGAAAAGTTATCAGGCATCACGTGGTGGGCAAATAACCGGTTGGGGTGGGTCGAGGGATTAGTTTTGGAGTACTCGCTCC [CLN118]”: the binding result in data set [1] (setting [4]) and in data set [2] (setting [4]) was “no binding” in each case.
